Reference: publication PMC11904182
No constants are given. Whether binding was seen depends on the method and setting. Binding seen in cells or lysates may run through a third protein. Some entries that bind do so weakly or less than the wild type. For some assays here: Where a sequence is shown, tags or fusion partners need not be part of it.

Protein sequences, listed by entry. Tags and fused reporters are not part of them.
UniProt P40763: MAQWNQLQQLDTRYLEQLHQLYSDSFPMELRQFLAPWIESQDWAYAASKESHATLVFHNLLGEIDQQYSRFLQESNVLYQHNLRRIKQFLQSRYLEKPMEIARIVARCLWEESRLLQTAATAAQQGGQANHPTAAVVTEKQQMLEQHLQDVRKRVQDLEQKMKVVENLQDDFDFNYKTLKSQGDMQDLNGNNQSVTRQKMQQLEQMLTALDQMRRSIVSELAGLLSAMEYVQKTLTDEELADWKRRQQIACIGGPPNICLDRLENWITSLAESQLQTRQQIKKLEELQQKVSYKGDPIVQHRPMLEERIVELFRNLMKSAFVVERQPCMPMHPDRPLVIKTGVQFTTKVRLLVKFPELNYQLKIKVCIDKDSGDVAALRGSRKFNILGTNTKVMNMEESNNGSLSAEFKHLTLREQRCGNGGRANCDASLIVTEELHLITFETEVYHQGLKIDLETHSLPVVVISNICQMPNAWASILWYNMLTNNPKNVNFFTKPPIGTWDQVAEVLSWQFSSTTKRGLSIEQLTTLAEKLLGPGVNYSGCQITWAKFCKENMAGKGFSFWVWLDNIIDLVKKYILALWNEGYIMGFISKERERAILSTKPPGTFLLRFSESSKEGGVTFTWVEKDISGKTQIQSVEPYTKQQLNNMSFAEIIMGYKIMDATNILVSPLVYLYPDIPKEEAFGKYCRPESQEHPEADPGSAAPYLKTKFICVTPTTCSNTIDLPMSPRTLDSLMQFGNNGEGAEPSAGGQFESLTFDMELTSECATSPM

Assays:
[1] = biological target: STAT3 (endogenous, SNU-216 cells) (human (endogenous in SNU-216)) (UniProt P40763); assay: co-IP; endogenous proteins in SNU-216 cells; 4x10^7 cells lysed in 500 uL lysis buffer; pre-cleared lysate with antibody at 4 °C for 3 h, protein A/G agarose beads at 4 °C overnight; beads washed with PBS 10 times; immunoblot
HA-tagged STAT3 (human) = HA-tagged STAT3 (human) (UniProt P40763); assay: co-IP; HEK293T transiently transfected with HA-tagged STAT3, Flag-tagged SRF, individually or both; equivalent lysates immunoprecipitated with anti-HA or anti-Flag antibody and immunoblotted

Row | binding [1] | binding (HA-tagged STAT3 (human)) | Binder
1 | binds |  | SRF (endogenous, SNU-216 cells) (protein, UniProt P11831 1-508) MLPTQAGAAAALGRGSALGGSLNRTPTGRPGGGGGTRGANGGRVPGNGAGLGPGRLEREAAAAAATTPAPTAGALYSGSEGDSESGEEEELGAERRGLKRSLSEMEIGMVVGGPEASAAATGGYGPVSGAVSGAKPGKKTRGRVKIKMEFIDNKLRRYTTFSKRKTGIMKKAYELSTLTGTQVLLLVASETGHVYTFATRKLQPMITSETGKALIQTCLNSPDSPPRSDPTTDQRMSATGFEETDLTYQVSESDSSGETKDTLKPAFTVTNLPGTTSTIQTAPSTSTTMQVSSGPSFPITNYLAPVSASVSPSAVSSANGTVLKSTGSGPVSSGGLMQLPTSFTLMPGGAVAQQVPVQAIQVHQAPQQASPSRDSSTDLTQTSSSGTVTLPATIMTSSVPTTVGGHMMYPSPHAVMYAPTSGLGDGSLTVLNAFSQAPSTMQVSHSQVQEPGGVPQVFLTASSGTVQIPVSAVQLHQMAVIGQQAGSSSNLTELQVVNLDTAHSTKSE
2 |  | binds | Flag-tagged SRF (protein, UniProt P11831 1-508) MLPTQAGAAAALGRGSALGGSLNRTPTGRPGGGGGTRGANGGRVPGNGAGLGPGRLEREAAAAAATTPAPTAGALYSGSEGDSESGEEEELGAERRGLKRSLSEMEIGMVVGGPEASAAATGGYGPVSGAVSGAKPGKKTRGRVKIKMEFIDNKLRRYTTFSKRKTGIMKKAYELSTLTGTQVLLLVASETGHVYTFATRKLQPMITSETGKALIQTCLNSPDSPPRSDPTTDQRMSATGFEETDLTYQVSESDSSGETKDTLKPAFTVTNLPGTTSTIQTAPSTSTTMQVSSGPSFPITNYLAPVSASVSPSAVSSANGTVLKSTGSGPVSSGGLMQLPTSFTLMPGGAVAQQVPVQAIQVHQAPQQASPSRDSSTDLTQTSSSGTVTLPATIMTSSVPTTVGGHMMYPSPHAVMYAPTSGLGDGSLTVLNAFSQAPSTMQVSHSQVQEPGGVPQVFLTASSGTVQIPVSAVQLHQMAVIGQQAGSSSNLTELQVVNLDTAHSTKSE
